The target of assay [1] is T1, GST-AurA-DN (GST fused to Aurora-A catalytic domain 122–403 D274N) (UniProt O14965).
T1 sequence: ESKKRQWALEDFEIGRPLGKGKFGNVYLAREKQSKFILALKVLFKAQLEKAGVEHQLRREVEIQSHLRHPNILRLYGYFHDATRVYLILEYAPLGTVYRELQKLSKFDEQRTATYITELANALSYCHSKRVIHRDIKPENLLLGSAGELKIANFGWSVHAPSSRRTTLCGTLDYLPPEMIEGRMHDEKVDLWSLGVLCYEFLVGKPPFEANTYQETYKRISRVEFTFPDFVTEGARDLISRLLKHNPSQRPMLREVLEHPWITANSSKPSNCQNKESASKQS
As to the kind of experiment: pull-down; GST co-precipitation: 100 ug GST-AurA-DN (2 uM in the TPX2 gradient experiment, with 5 uM TACC3act-H6c and 1-50 uM His6-TPX2^1-43) immobilised on Gluthathione Sepharose 4B; 100 ug TACC3 or TPX2^1-43 added, 2 hrs at 4 C; 50 mM Tris pH 7.5, 150 mM NaCl, 5 mM MgCl2, 5 mM beta-mercaptoethanol, 0.02% TWEEN 20; SDS-PAGE and anti-His6 blot; both purified.

By UniProt entry, the sequences of proteins in these tests, tags left out.
UniProt Q9PTG8: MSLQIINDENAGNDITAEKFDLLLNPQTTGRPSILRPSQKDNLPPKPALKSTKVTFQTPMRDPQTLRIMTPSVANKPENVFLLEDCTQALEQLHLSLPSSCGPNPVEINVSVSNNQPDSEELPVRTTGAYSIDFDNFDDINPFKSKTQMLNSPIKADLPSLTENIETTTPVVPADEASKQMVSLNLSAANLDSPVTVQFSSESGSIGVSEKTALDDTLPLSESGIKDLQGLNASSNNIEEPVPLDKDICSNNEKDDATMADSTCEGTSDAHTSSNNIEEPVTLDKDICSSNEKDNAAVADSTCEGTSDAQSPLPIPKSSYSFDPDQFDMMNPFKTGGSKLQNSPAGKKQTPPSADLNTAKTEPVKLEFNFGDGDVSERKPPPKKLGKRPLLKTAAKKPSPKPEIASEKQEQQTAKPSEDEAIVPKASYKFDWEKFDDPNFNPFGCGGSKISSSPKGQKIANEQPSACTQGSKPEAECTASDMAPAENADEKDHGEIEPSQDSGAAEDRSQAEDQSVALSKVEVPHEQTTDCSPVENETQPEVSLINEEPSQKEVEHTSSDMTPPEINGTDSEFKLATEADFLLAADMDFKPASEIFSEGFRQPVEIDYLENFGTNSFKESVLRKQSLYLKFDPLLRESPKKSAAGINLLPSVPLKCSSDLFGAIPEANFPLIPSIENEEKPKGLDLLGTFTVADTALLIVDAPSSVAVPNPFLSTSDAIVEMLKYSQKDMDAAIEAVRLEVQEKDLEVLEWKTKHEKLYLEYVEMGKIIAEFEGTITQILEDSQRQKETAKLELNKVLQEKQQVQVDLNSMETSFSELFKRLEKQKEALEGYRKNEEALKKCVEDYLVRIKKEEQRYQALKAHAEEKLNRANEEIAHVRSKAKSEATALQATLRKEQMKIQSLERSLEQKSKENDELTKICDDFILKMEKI

Assay [2] addresses GST-XTACC3 (full-length Xenopus TACC3, maskin) (Xenopus laevis) (UniProt Q9PTG8). As to the kind of experiment: pull-down; 3 uM recombinant GST protein preincubated in CSF-arrested Xenopus egg extract, retrieved on beads (anti-GST on protein A Dynabeads by the methods; Gluthathione Sepharose by the legend); Western blot; only the target purified. (In general: Immunoblotting shows a protein as a band on a membrane.)

Assay [3] has the same target. Kind of assay: pull-down; in vitro GST pull-down: 5-10 ug GST recombinant protein on anti-GST coated beads, 0.25 uM His-AurA in kinase buffer (20 mM Hepes pH 7.5, 200 mM KCl, 30 mM MgCl2, 0.5 mM EGTA, 1 mM DTT, 0.05% Triton X-100, 1 mg/ml BSA), 30 mins at 22 C; Western blot; both purified.

These are yes or no findings as the source states them, for the method shown. For part of these data: In cells and extracts the contact can be indirect. Some binding calls cover weakened binding; strength is not graded here. For part of these data: Where a sequence is shown, tags or fusion partners need not be part of it.

B1: TACC3act-H6c F525A (domain or fragment, human, UniProt Q9Y6A5 519-563, looked up)
chain: ELKEESARDPAEVLGTGAEVDYLEQFGTSSFKESALRKQSLYLKF
notes: also called F525A mutant; source: recombinant, purified; not shown: His6, C-terminal, kept
Take B1: the binding result in assay [1] was “binds weakly”.

B2: endogenous AurA in Xenopus egg extract (protein, UniProt Q91820 1-407)
chain: MERAVKENHKPSNVKIFHPMTEGAKRIPVNQPQSTQFRPPGTAVSAQRILGPSNVPQRVLAQAQKPILSSQKPTTQIPLRPATQGHQSSKPQGPNENRNPQQTSHSSTPNVEKKGSTDQGKTSAVPKEEGKKKQWCLEDFEIGRPLGKGKFGNVYLARERESKFILALKVLFKSQLEKAGVEHQLRREVEIQSHLRHPNILRLYGYFHDASRVYLILDYAPGGELFRELQKCTRFDDQRSAMYIKQLAEALLYCHSKKVIHRDIKPENLLLGSNGELKIADFGWSVHAPSSRRTTLCGTLDYLPPEMIEGRMHDETVDLWSLGVLCYEFLVGKPPFETDTHQETYRRISKVEFQYPPYVSEEARDLVSKLLKHNPNHRLPLKGVLEHPWIIKNSQLKKKDEPLPGAQ
As for B2, the binding entry in assay [2] is “binds”.

B3: His-AurA-WT (Xenopus Aurora A, wild-type) (enzyme, UniProt Q91820 1-407)
chain: B2 chain
Turning to B3, in assay [3], the binding entry is reported as “binds”.

These data come from PMC4489650, “Aurora-A-Dependent Control of TACC3 Influences the Rate of Mitotic Spindle Assembly” (PLoS Genetics, 2015).
